The match of structure and compound is tentative.
Columns and labels:
[1] = target: T1, FAP (Homo sapiens, UniProt Q12884); assay: Cleavage of FRET labelled peptide substrates by FAP; settings: FIG. 2
[2] = target: T2, DPP-4 (Homo sapiens, UniProt P27487); assay: Hydrolysis of FRET-labelled peptide substrate by DPP-4; settings: FIG. 2
[3] = target: T1, FAP; assay: Relative cleavage rates of coumarin (AMCC) dipeptide substrates by FAP
[4] = target: T2, DPP-4; assay: Relative cleavage rates of coumarin (AMCC) dipeptide substrates by DPP-4
[5] = P2-Pro-AMCC substrates, hydrolysis rates normalized to Gly-Pro-AMCC

Chains of the proteins cited; added tags and fusions are not shown. Residues count along the entry.
UniProt Q12884, 38-760 limits assumed: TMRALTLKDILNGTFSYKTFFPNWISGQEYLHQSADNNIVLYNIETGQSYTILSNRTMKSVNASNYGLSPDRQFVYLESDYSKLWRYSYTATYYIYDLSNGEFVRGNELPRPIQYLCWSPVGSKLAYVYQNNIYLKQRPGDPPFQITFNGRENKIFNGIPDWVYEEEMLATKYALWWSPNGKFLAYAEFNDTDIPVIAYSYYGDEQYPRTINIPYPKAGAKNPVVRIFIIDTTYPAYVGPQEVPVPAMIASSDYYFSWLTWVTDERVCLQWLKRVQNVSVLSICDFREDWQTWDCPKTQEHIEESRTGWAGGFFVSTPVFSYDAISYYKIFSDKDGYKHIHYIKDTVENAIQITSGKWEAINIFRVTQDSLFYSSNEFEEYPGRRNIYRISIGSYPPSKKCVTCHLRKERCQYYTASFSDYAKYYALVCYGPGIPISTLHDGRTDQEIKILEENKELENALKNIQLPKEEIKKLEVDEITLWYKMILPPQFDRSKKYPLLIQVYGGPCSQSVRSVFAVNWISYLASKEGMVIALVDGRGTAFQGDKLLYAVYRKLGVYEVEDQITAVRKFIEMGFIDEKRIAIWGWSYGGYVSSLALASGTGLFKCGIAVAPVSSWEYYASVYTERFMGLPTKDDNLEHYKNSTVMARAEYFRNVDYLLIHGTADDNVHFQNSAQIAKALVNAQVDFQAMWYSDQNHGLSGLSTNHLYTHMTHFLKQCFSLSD
UniProt P27487, 39-766 limits assumed: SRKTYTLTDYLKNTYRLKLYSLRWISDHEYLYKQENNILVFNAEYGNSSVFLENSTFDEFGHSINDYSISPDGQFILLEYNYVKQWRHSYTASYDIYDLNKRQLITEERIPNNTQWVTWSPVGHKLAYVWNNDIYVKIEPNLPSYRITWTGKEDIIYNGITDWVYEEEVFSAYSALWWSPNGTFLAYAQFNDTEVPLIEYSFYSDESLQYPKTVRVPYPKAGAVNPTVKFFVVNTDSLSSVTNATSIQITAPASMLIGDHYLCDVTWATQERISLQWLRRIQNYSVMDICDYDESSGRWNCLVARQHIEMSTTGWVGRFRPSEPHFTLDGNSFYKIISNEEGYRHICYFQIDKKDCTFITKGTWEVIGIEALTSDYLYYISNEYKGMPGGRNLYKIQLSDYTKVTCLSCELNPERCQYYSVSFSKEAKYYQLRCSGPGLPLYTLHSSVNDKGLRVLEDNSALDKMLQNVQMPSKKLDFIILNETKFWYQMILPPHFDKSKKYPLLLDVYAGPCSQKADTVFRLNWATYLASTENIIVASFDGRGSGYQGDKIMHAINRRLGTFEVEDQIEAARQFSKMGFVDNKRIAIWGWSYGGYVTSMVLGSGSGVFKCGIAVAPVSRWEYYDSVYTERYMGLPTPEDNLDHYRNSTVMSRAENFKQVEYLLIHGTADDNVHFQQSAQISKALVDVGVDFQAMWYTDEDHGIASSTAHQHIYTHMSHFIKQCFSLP

With `C[C@@H](O)[C@H](NC(=O)[C@H](CCCCNC(=O)c1ccc(/N=N/c2ccc(N(C)C)cc2)cc1)NC(=O)[C@@H](N)CCCNC(=N)N)C(=O)N[C@@H](CO)C(=O)NCC(=O)N1CCC[C@H]1C(=O)N[C@@H](CC(N)=O)C(=O)N[C@@H](CCC(N)=O)C(=O)N[C@@H](CCC(=O)O)C(=O)N[C@@H](CCC(N)=O)C(=O)N[C@@H](CCC(=O)NCCNc1cccc2c(S(=O)(=O)O)cccc12)C(=O)N[C@@H](CCCNC(=N)N)C(=O)O` the “hydrolysis of FRET-labelled peptide by FAP” value [1] was “cleaves”, the “hydrolysis of FRET-labelled peptide by DPP-4” value [2] was “does not” and the “relative cleavage rate by FAP” value ([3]; N-blocked Gly-Pro-AMCC substrates 6, normalized to N-unblocked Gly-Pro-AMCC, FAP 37 nM) was 100%. The “Relative Hydrolysis rate by FAP” value [3, 5] was 100, the “relative cleavage rate by DPP-4” value ([4]; N-blocked Gly-Pro-AMCC substrates 6, normalized to N-unblocked Gly-Pro-AMCC, DPP-4 6.8 nM) was 100% and the “Relative Hydrolysis rate by DPP-4” value [4, 5] was 100.
